Data set [1] relates to integrin alpha6 (on 4175-LuT exosomes) + integrin beta4 (on 4175-LuT exosomes). The data set can be described thus: SEM of exosomes captured on poly-T passivated chip. The following applies: exosomes 1e8/mL, 1 h, 0.005% PBSt, surface nearly free of exosomes; 5' thiol (HS); 1x PBS + 0.005% Tween-20 (PBSt); pH and temperature not stated; probe immobilised in 1x PBS + 1 M NaCl; protein on the cell surface; single-stranded DNA.

The test system is the same in data set [2]. The data set can be described thus: SPR. The settings on record: phase-sensitive SPR, exosomes 1.5e6/mL, 1x PBS + 0.005% Tween-20, slow dissociation, anti-CD9 confirmation; 5' thiol (HS); 1x PBS + 0.005% Tween-20 (PBSt); pH and temperature not stated; probe immobilised in 1x PBS + 1 M NaCl; protein on the cell surface; single-stranded DNA.
For data set [3] the test system is unchanged. The data set can be described thus: SEM of exosomes captured on aptamer-modified chip. The following applies: exosomes 1e8/mL, 1 h, 0.005% PBSt; 5' thiol (HS); 1x PBS + 0.005% Tween-20 (PBSt); pH and temperature not stated; probe immobilised in 1x PBS + 1 M NaCl; protein on the cell surface; single-stranded DNA.

The exact form of at least one protein or probe is not confirmed. Where cells or extracts were used, other partners may take part. For part of these data: No signal at the amounts used counts as a negative.

On to “TTTTTTTTTT [thiolated poly-thymine (T10 spacer)]”, for which the binding result in data set [1] was “no binding”. On to “TTTTTTTTTTCGTGCGTATTCGTACTGGAACTGATATCGATGTCCC [IDAB aptamer with 5' T10]”, for which the binding result in data set [2] and in data set [3] was “binds” in each case.

For the origin of these results see article PMC8004883.
